{"source": "PubChem BioAssay AID1259254 (NCATS, 2017)", "assay": "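Finding genes that stop cells copying their DNA twice in one cycle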 (primary screen)", "system": "human HCT116 colorectal cancer cells", "reagent": "single siRNA against human genes", "time to read-out": "3 days", "measured": "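Imaged Hoechst DNA stain sorts each cell into a cycle phase by DNA amount; per plate, G2 fraction set to 0% for non-targeting and 100% for GMNN siRNA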", "reading the numbers": "G2 robust z-score and G2 cells, % of GMNN control: higher = more G2 cells, more excess DNA replication", "call rule": "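Active siRNAs have a G2 robust z of 5 or more median absolute deviations over the median, which in these data means about 38% or higher of GMNN control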", "note": "The whole screen tested about 59,000 reagents; shown is a part drawn at random. About 1,550 of them (2.6%) count as active. 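G2 share is only a proxy for re-replication; each gene was hit by three separate siRNAs, and active genes were retested.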 Reagents against one gene are numbered here. Not all columns of the deposit are shown. The record does not give: the amount of reagent."}
{"gene": "COMMD3 (COMM domain containing 3)", "reagent no.": 1, "G2 robust z-score": 2.73, "G2 cells, % of GMNN control": 22.2, "Outcome": "inactive"}
{"gene": "COMMD3 (COMM domain containing 3)", "reagent no.": 2, "G2 robust z-score": 1.28, "G2 cells, % of GMNN control": 12, "Outcome": "inactive"}
{"gene": "COMMD3 (COMM domain containing 3)", "reagent no.": 3, "G2 robust z-score": 1.65, "G2 cells, % of GMNN control": 14.6, "Outcome": "inactive"}
{"gene": "ZNF563 (zinc finger protein 563)", "reagent no.": 1, "G2 robust z-score": 3.82, "G2 cells, % of GMNN control": 29.8, "Outcome": "inactive"}
{"gene": "ZNF563 (zinc finger protein 563)", "reagent no.": 2, "G2 robust z-score": -0.818, "G2 cells, % of GMNN control": -2.79, "Outcome": "inactive"}
{"gene": "ZNF563 (zinc finger protein 563)", "reagent no.": 3, "G2 robust z-score": 0.828, "G2 cells, % of GMNN control": 8.8, "Outcome": "inactive"}
{"gene": "NEFM (neurofilament medium chain)", "reagent no.": 1, "G2 robust z-score": -0.944, "G2 cells, % of GMNN control": -3.68, "Outcome": "inactive"}
{"gene": "NEFM (neurofilament medium chain)", "reagent no.": 2, "G2 robust z-score": -0.528, "G2 cells, % of GMNN control": -0.746, "Outcome": "inactive"}
{"gene": "NEFM (neurofilament medium chain)", "reagent no.": 3, "G2 robust z-score": -1.27, "G2 cells, % of GMNN control": -5.94, "Outcome": "inactive"}

Records listed so far whose gene name starts with C or c:
{"gene": "COMMD3 (COMM domain containing 3)", "reagent no.": 1, "G2 robust z-score": 2.73, "G2 cells, % of GMNN control": 22.2, "Outcome": "inactive"}
{"gene": "COMMD3 (COMM domain containing 3)", "reagent no.": 2, "G2 robust z-score": 1.28, "G2 cells, % of GMNN control": 12, "Outcome": "inactive"}
{"gene": "COMMD3 (COMM domain containing 3)", "reagent no.": 3, "G2 robust z-score": 1.65, "G2 cells, % of GMNN control": 14.6, "Outcome": "inactive"}

Further results follow:
{"gene": "CHP2 (calcineurin like EF-hand protein 2)", "reagent no.": 1, "G2 robust z-score": 1.67, "G2 cells, % of GMNN control": 14.7, "Outcome": "inactive"}
{"gene": "CHP2 (calcineurin like EF-hand protein 2)", "reagent no.": 2, "G2 robust z-score": 3.78, "G2 cells, % of GMNN control": 29.6, "Outcome": "inactive"}
{"gene": "CHP2 (calcineurin like EF-hand protein 2)", "reagent no.": 3, "G2 robust z-score": 0.0319, "G2 cells, % of GMNN control": 3.19, "Outcome": "inactive"}
{"gene": "CROT (carnitine O-octanoyltransferase)", "reagent no.": 1, "G2 robust z-score": -1.39, "G2 cells, % of GMNN control": -6.83, "Outcome": "inactive"}
{"gene": "CROT (carnitine O-octanoyltransferase)", "reagent no.": 2, "G2 robust z-score": -0.889, "G2 cells, % of GMNN control": -3.29, "Outcome": "inactive"}
{"gene": "CROT (carnitine O-octanoyltransferase)", "reagent no.": 3, "G2 robust z-score": -1.15, "G2 cells, % of GMNN control": -5.13, "Outcome": "inactive"}
{"gene": "RPS9 (ribosomal protein S9)", "reagent no.": 1, "G2 robust z-score": 4.38, "G2 cells, % of GMNN control": 33.8, "Outcome": "inactive"}
{"gene": "RPS9 (ribosomal protein S9)", "reagent no.": 2, "G2 robust z-score": 4.48, "G2 cells, % of GMNN control": 34.5, "Outcome": "inactive"}
{"gene": "RPS9 (ribosomal protein S9)", "reagent no.": 3, "G2 robust z-score": 3.9, "G2 cells, % of GMNN control": 30.4, "Outcome": "inactive"}
{"gene": "CUTC (cutC copper transporter)", "reagent no.": 1, "G2 robust z-score": 0.856, "G2 cells, % of GMNN control": 8.99, "Outcome": "inactive"}
{"gene": "CUTC (cutC copper transporter)", "reagent no.": 2, "G2 robust z-score": 7.55, "G2 cells, % of GMNN control": 56.1, "Outcome": "active"}
{"gene": "CUTC (cutC copper transporter)", "reagent no.": 3, "G2 robust z-score": 0.636, "G2 cells, % of GMNN control": 7.44, "Outcome": "inactive"}
{"gene": "ADO (2-aminoethanethiol dioxygenase)", "reagent no.": 1, "G2 robust z-score": 1.69, "G2 cells, % of GMNN control": 14.8, "Outcome": "inactive"}
{"gene": "ADO (2-aminoethanethiol dioxygenase)", "reagent no.": 2, "G2 robust z-score": 3.52, "G2 cells, % of GMNN control": 27.8, "Outcome": "inactive"}
{"gene": "ADO (2-aminoethanethiol dioxygenase)", "reagent no.": 3, "G2 robust z-score": 0.999, "G2 cells, % of GMNN control": 10, "Outcome": "inactive"}
